# Experiments:
# [1] = Fmoc solid-phase peptide synthesis; Rink Amide ChemMatrix; PyBOP/HOBt/DIEA; HCTU/NMM; HBTU/HOBt/DIEA; conditions: whole synthesis, scale of the general procedure 0.0633 mmol
# [2] = general procedure: Fmoc solid-phase peptide synthesis; Fmoc-Cys(Trt)-Rink resin; 2-chlorotrityl-Cys(S-Trt) preloaded resin; Rink Amide ChemMatrix; PyBOP/HOBt/DIEA; HCTU/NMM; HBTU/HOBt/DIEA; conditions: 214 nm
# [3] = Fmoc solid-phase peptide synthesis; 2-chlorotrityl-Cys(S-Trt) preloaded resin; PyBOP/HOBt/DIEA; HCTU/NMM; HBTU/HOBt/DIEA; conditions: whole synthesis, scale of the general procedure 0.0633 mmol
# [4] = Fmoc solid-phase peptide synthesis; chlorotrityl resin preloaded with Cys(Trt); PyBOP/HOBt/DIEA; HCTU/NMM; HBTU/HOBt/DIEA; conditions: whole synthesis, scale of the general procedure 0.0633 mmol
substance,measurement,setting,value
Ac-Ala-Cys-Asn-Phe-Asn-Asp-Val-Thr-Thr-Arg-Leu-Arg-Glu-Asn-Glu-Leu-Thr-Tyr-Tyr-Cys-Ala-Ala-Lys-NH2 (SEQ ID NO: 11) (Cys^2-Cys^20-disulfide),final purity (method not given),[1],>93%
Ac-Asn-Lys-Ala-Trp-Lys[N^ε-(1-deoxy-D-glucitol-1-yl)]-Phe-Glu-His-Ala-Asn-Phe-Asn-Asp-Cys-OH,crude HPLC purity,[2]; late stage modification step,70%
same,crude HPLC purity,"[2]; whole synthesis, scale of the general procedure 0.0633 mmol",58%
same,final purity (method not given),[3],>95%
"Ac-{Ala^39,45,LyS^38(N^ε-ivDde),Cys^50}hCD59(37-50)",final HPLC purity,[4],>95%
